Experimental data from the supplement of paper PMC3334620.
The full ranking holds about 33,000 sequences; the median of “E-score (-0.5 to 0.5)” is about -0.0059, and the highest 2% start at about 0.26. Some of the results follow.

Target: T1, Cin5 (UniProt P40917)
T1 sequence: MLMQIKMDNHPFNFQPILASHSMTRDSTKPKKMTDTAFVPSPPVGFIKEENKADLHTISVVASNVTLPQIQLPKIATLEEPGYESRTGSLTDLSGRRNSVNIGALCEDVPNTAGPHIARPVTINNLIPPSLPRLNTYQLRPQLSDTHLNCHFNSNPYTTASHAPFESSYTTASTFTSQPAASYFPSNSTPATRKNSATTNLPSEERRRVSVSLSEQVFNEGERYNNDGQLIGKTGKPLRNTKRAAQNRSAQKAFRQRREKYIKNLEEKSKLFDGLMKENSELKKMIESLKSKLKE
Test: PBM E-score (8-mer binding enrichment) (E-score (-0.5 to 0.5)); higher = stronger / more preferred TF binding
Details: protein concentration: 100 nM; construct: GST-full length
Procedure, shortened: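 Masliner-normalised scans of fluorescent anti-GST signal were the basis for scoring. That signal came from GST-tagged yeast transcription factors applied at about 100-200 nM to double-stranded universal all-10-mer Agilent arrays on fresh or once-stripped slides. Each ungapped eight-base word, pooled with its reverse complement, received an E-score from the Universal PBM Analysis Suite.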

| Sequence | PBM E-score |
| --- | --- |
| CGCTACTA | 0.225 |
| AACAGTCG | -0.0526 |
| AAAGCAAC | -0.0159 |
| GGGGATAA | 0.089 |
| ACTCCGGG | -0.0634 |
| CCCTTCGC | -0.201 |
| TCTAGCCA | 0.0369 |
| CAAGCCGA | 0.0303 |
| GGTCTTCA | -0.306 |
| AAATGTAT | 0.276 |
| CAGATGTA | -0.00052 |
| AACATTAT | 0.261 |
| AAGCACAG | 0.0539 |
| CGGGTTCA | -0.123 |
| CATATAAC | 0.221 |
| ACCCCACT | 0.205 |
| ACAGTATG | 0.125 |
| CACTTCCA | 0.00352 |
| AGCGCCTC | -0.188 |
| AGTCCACA | -0.16 |
| GCGCACTA | 0.015 |
| GCGCGCCC | -0.0675 |
| AAGTGAAA | 0.171 |
| ACTATTGC | 0.144 |

| Sequence | PBM E-score |
| --- | --- |
| CTACAACA | -0.0362 |
| ATAGACGA | 0.066 |
| CCATGAAG | -0.1 |
| CTAGCCCA | -0.117 |
| AGTTCAGA | -0.082 |
| CGCTCACA | 0.00496 |
| AGGACCTG | -0.296 |
| ATCAGCTA | -0.0705 |
| AGGATGTC | -0.0361 |
| GAAACATA | 0.253 |
| CGATGACA | 0.0915 |
| CTGGCGGA | -0.172 |
| GTGCGGCA | -0.149 |
| ACAATAGC | -0.0152 |
| CCGTCTGA | -0.164 |
| CCGTTTGA | -0.17 |
| ACTTAAGA | 0.0404 |
| CCGCTCAC | -0.1 |
| GCTTACAC | 0.391 |
| ATCCTGCC | -0.059 |
| ACGTTGGG | -0.0381 |
| GGAACAAC | 0.0525 |
| TCAGGAGA | 0.00383 |
| CCGTAACG | -0.112 |

| Sequence | PBM E-score |
| --- | --- |
| ACGGTATA | 0.00213 |
| GAGGGAAC | -0.235 |
| GAGGTAAA | 0.073 |
| AACGTGTC | -0.11 |
| GGAGAGCC | -0.344 |
| GAAACGTA | 0.141 |
| CCGAGGAC | -0.142 |
| GAACAGCA | 0.0701 |
| ACAGTCGT | -0.129 |
| GTGGCGAA | -0.0226 |
| AAGCGACT | -0.0539 |
| GCTCAACA | 0.00252 |
| ATGACAAC | 0.183 |
| AAAATTCC | 0.19 |
| GTTTCCCA | 0.146 |
| GATGCGAC | 0.00124 |
| CACGAAGC | -0.0589 |
| ACTTGCCT | 0.0696 |
| CGCGGCAC | -0.0168 |
| ACGGGGTA | -0.0731 |
| GCATTTGA | 0.0701 |
| ACTTCGTC | 0.174 |
| AGTTCCGA | 0.123 |
| CCGACTTC | -0.279 |

| Sequence | PBM E-score |
| --- | --- |
| TGCATAAA | 0.088 |
| AGGACCTC | -0.0477 |
| GGTTGTCA | 0.0406 |
| AAGACTCT | 0.106 |
| CTAGGACA | -0.0799 |
| AAGCTTCA | -0.0361 |
| ACAATACT | 0.237 |
| CACCGCCC | 0.00407 |
| CTTGCTGA | 0.0854 |
| CCTATAGG | -0.0993 |
| ACACGGAT | 0.128 |
| CGCGAGTC | -0.102 |
| CGAGTGTA | -0.0391 |
| GCAAACCC | -0.148 |
| AAACGGGT | 0.0105 |
| GTAAGGGA | -0.0123 |
| CTTAATCA | 0.205 |
| AACGTTGC | 0.0588 |
| AGCAGCGA | 0.0135 |
| ACGACATA | 0.0814 |
| ATCGCAGC | 0.0659 |
| GCTGTAAA | -0.0756 |
| AAACGGGG | 0.0392 |
| ATACACAA | 0.122 |

Some of the entries above in a different format.
Sequence | PBM E-score
AAGACTCT | 0.106
CTAGGACA | -0.0799

Continued:

| Sequence | PBM E-score |
| --- | --- |
| CCGGCAGC | -0.115 |
| AGGCTCCG | -0.0483 |
| CTACGCAG | -0.0942 |
| CGTCTGGC | -0.131 |
| AGGTACAG | -0.0805 |
| AGTGGCTC | 0.0536 |
| CATCTGTA | 0.0354 |
| AAGAACTA | 0.089 |
| CACCAACA | 0.163 |
| TCGAGTCA | -0.0465 |
| GATATTGA | 0.0812 |
| TAGAAACA | -0.0267 |
| GAATTTAA | 0.0554 |
| GTCGCCAA | -0.0554 |
| TCACAACA | 0.0495 |
| CCACTCAA | 0.0609 |
| CCGCCTGC | -0.288 |
| ATATGACA | 0.219 |
| CTACCACA | -0.0341 |
| CATGGCGA | -0.0534 |
| ATGTTGGG | 0.0177 |
| AGGAAGGA | -0.221 |
| CGGGTTCC | -0.0262 |
| AACTGAAC | 0.113 |

| Sequence | PBM E-score |
| --- | --- |
| AACCCTTA | 0.168 |
| TACAGCAA | 0.11 |
| CCAGCTGA | 0.141 |
| CATAAAAC | 0.036 |
| GGGGGAGA | -0.215 |
| ATTCGACA | -0.116 |
| AGCCGCGG | 0.103 |
| AGGACGGC | -0.28 |
| ACACCTTC | 0.0317 |
| GCTAGGCA | -0.305 |
| CTCGTCAG | 0.0601 |
| CCGCTCTC | -0.204 |
| ACATGCCA | 0.165 |
| AATAATTC | 0.261 |
| ATCCCTGC | -0.109 |
| AAATTAGG | 0.102 |
| AGGACTAC | -0.205 |
| ACCCAGAA | 0.0954 |
| GCCTCTGA | -0.13 |
| ATTTAGGA | -0.031 |
| AAGAGTCC | -0.181 |
| CAGGCACC | -0.258 |
| ATAATGAA | 0.254 |
| CGCCTTGC | -0.139 |

| Sequence | PBM E-score |
| --- | --- |
| AGGATTTG | -0.0503 |
| ATAGCAGG | -0.0202 |
| AACTCAGG | -0.129 |
| CGCTGTAG | -0.0977 |
| CGTCTTAG | -0.259 |
| AGGAGATA | -0.00724 |
| GGGCCGTA | -0.113 |
| ACGCGGAG | -0.0136 |
| CGGTCCCC | -0.285 |
| GACCAGAC | -0.182 |
| AACGTATA | 0.152 |
| CGCATGAG | -0.103 |
| ATTACAAT | 0.153 |
| ATTCGTCG | 0.102 |
| TGGTGTAA | 0.179 |
| CACTCCCA | -0.0158 |
| AACTAAAA | 0.208 |
| AAACTACG | -0.0524 |
| CGGAAAAC | 0.0779 |
| CATAGATC | -0.064 |
| CGTTCGAA | 0.131 |
| AATGCAGA | 0.0744 |
| CCCCTCGC | -0.182 |
| GGACTACA | -0.00389 |

Copied from the list:
For PBM E-score, GGACTACA reads -0.00389
For PBM E-score, ATTCGTCG reads 0.102
For PBM E-score, AGGATTTG reads -0.0503
For PBM E-score, AATGCAGA reads 0.0744
For PBM E-score, CACTCCCA reads -0.0158
For PBM E-score, CATAGATC reads -0.064
For PBM E-score, GGGCCGTA reads -0.113

Going on with the list:

| Sequence | PBM E-score |
| --- | --- |
| GCTGATAA | 0.0262 |
| ATGGGTAC | -0.0604 |
| TAAAGCGA | 0.192 |
| AACCATCT | -0.0707 |
| AGTTTAGG | -0.151 |
| CACGATGC | -0.224 |
| GAGCGGTA | -0.0453 |
| CTTCGTCC | -0.0338 |
| ACAAAAGA | 0.164 |
| AGTCCGCA | -0.139 |
| CGTCCGTC | -0.208 |
| TCTTGTCA | 0.0205 |
| TAAATTTA | 0.206 |
| CGATAATA | 0.22 |
| GATCACTA | -0.00025 |
| AACGTCCG | -0.0391 |
| GTTCCCTA | -0.14 |
| ACTACGAA | 0.00813 |
| GCTACCTA | 0.00956 |
| GTGATGCA | 0.181 |
| GTGGAGAA | -0.0808 |
| TACGCGTA | -0.00365 |
| CCTTCGCA | -0.227 |
| CGGGTTGA | -0.0861 |
